{
  "source": "paper PMC5794259",
  "about": "“Novel ATP-cone-driven allosteric regulation of ribonucleotide reductase via the radical-generating subunit” (eLife, 2018)",
  "tested_on": "mixture of NrdA (α) and NrdB (β)",
  "assay": "GEMMA analysis of NrdA-NrdB mixture",
  "parameters": "species or system Leeuwenhoekiella blandensis",
  "conditions": "100 µM dATP",
  "data": [
    {"compound": "Nc1ncnc2c1ncn2[C@H]1C[C@H](O)[C@@H](COP(=O)(O)OP(=O)(O)OP(=O)(O)O)O1", "note": "[dATP]", "values": [
      {"measurement": "mass of complex formed", "setting": "0.1 mg/ml NrdA and 0.1 mg/ml NrdB, expected α2β4 (theoretically 348 kDa)", "result": 340, "unit": "kDa"},
      {"measurement": "mass of complex formed at higher protein concentration", "setting": "0.4 mg/ml NrdA and 0.3 mg/ml NrdB, expected α4β4 (theoretically 488 kDa)", "result": 465, "unit": "kDa"}
    ]}
  ]
}
